{"source": "patent US20100098689A1", "about": "“4-1 bb ligand in inflammatory diseases” (The Scripps Research Institute, priority 2006, published 2010)", "key": {"wild-type macrophages": {"system": "wild-type macrophages", "test": "ELISA of TNF production by macrophages infected with adenovirus expressing 4-1BBL", "type": "cell-based, mouse", "details": "inhibitor added 6 h after infection (20 μM sulfasalazine, 10 μM SB203580, 5 μM SP600125, 10 μM PD98059), analyzed 24 hour after infection", "protocol": "FIG. 10A-I indicate that two sequential TLR4 complexes exist. (A) Immunoassay of wild-type macrophages treated with LPS (time, above lanes); total cell lysates (Lysates; top) or lysates immunoprecipitated with anti-TLR4, anti-MyD88 or anti-4-1BBL were analyzed by immunoblot with anti-4-1BBL, anti-TLR4 and/or anti-MyD88. Dashed outline, isotype antibody (negative control for immunoprecipitation); solid outlines, positive control for immunoblot of 4-1BBL or MyD88. In LPS-treated macrophages, the MyD88-TLR4 complex is responsible for the initial cellular responses, and the 4-1BBL-TLR4 complex is involved in sustaining TNF production. […] (C) 4-1BBL interacts with TRAF6, but not TRAF2. (D) Knockdown of TRAF6 impaired LPS, PolyI:C, and IL-1β induced cytokine production, but has no effect on TNF-induced IL-6 production. […]"}, "4-1BBL mRNA": {"system": "4-1BBL mRNA", "test": "Semiquantitative PCR of LPS-induced 4-1BBL mRNA in macrophages", "type": "cell-based, mouse", "details": "pretreated 1 hour with 20 μM sulfasalazine, 10 μM SB203580, 5 μM SP600125 or 10 μM PD98059, then LPS; MG-132 data not shown", "protocol": "(A) Immunoblot of 4-1BBL in lysates from wild-type macrophages and macrophages deficient in TLR4 (TLR4 KO), MyD88 (MyD88 KO) or TRIF (TRIF KO), treated with LPS (time, above lanes). LPS induces quick expression of 4-1BBL in macrophages in a TLR4-, MyD88-, and TRIF-dependent manner. (B) Semiquantitative PCR of 4-1BBL mRNA in wild-type macrophages left without pretreatment (None) or pretreated for 1 hour with inhibitors of NF-κB (20 μM sulfasalazine), p38 (10 μM SB203580), Jnk (5 μM SP600125) or MEK (10 μM PD98059) and then treated with LPS (time, above lanes). […] (C) Real-time RCR analysis of the stability of LPS-induced 4-1BBL mRNA (1 hour of treatment; LPS) or ectopically expressed 4-1BBL mRNA at 18 hour after infection with recombinant adenovirus encoding 4-1BBL (Adv). Actinomycin D was used to inhibit transcription. Values are the percent remaining relative to the value at 0 hour (set at 100%). LPS-induced alterations in mRNA stability were also involved in LPS-induced 4-1BBL expression. […]\nTo determine whether the newly synthesized 4-1BBL needs to be on the cell surface in order to regulate the expression of TNF, peritoneal macrophages were preincubated with or without brefeldin A (3 μg/mL) for 1 hour and were then treated with LPS for the indicated times. […] 4-1BBL and TNF mRNA were analyzed by semiquantitative PCR. […]"}}, "note": "At least one compound was matched to its structure with a doubt left."}
{"molecule": "Oc1c2ccccc2c2c3c(cccc13)N=N2", "note": "[SP600125]", "values": [{"measurement": "4-1BBL-mediated TNF production", "setting": "wild-type macrophages", "value": "reduced"}, {"measurement": "LPS-induced 4-1BBL mRNA / 4-1BBL expression", "setting": "4-1BBL mRNA", "value": "some inhibitory effects"}]}
